Test results published in US20240117402A1, “METHODS FOR (POLY) PEPTIDE TANDEM LIGATION AND CYCLIZATION” (Nanyang Technological University, priority 2021, published 2024).
At least one read-out could not be matched to a standard name with certainty.

Columns and labels:
butelase-1 = assay: Butelase-1-mediated intermolecular peptide ligation kinetics (HPLC); assay type: biochemical; conditions: limiting substrate 50-800 μM, partner peptide constant
Protocol: (§1) FIG. 3. Kinetic studies on VyPAL2- and butelase 1-catalyzed intermolecular ligations. A) Peptide 1 (SEQ ID NO:7) containing the C-terminal NHV sequence was used at varying concentrations (50 — 800 μM) to react with peptide 2 (SEQ ID NO:8) at constant concentration (1 mM); B) Peptide 4 (SEQ ID NO:9) at a constant concentration (1.5 mM) was reacted with the GF-peptide 5 (SEQ ID NO:10) at varying concentrations (50-800 μM). C) Peptide 2 at a constant concentration (1.5 mM) was reacted with the -NGF peptide 7 (SEQ ID NO:11) at varying concentrations (50-800 μM). The ligation product 3 or 6 was confirmed by ESI-MS. The reaction rates were calculated from the consumption of the limiting substrate 1, 5 or 7. Initial rate (V0) at different concentrations of the limiting substrate were used for Michaelis-Menten curve plotting. For each kinetic calculation, a lineweaver-Burk plot was also used to confirm the analysis.
(§2) PAL enzymes have been used extensively for protein single-site labeling and macrocyclization. […] To determine the differences quantitatively, firstly the kinetics of VyPAL2 and butelase-1 toward peptide 1 or 7 which has a C-terminal NHV or NGF tripeptide motif respectively were studied (Table 1). […] Reverse-phase analytical HPLC was used to monitor and quantify the ligation reaction. […]

VyPAL2 = assay: VyPAL2-mediated intermolecular peptide ligation kinetics (HPLC); assay type: biochemical, Viola yedoensis; conditions: limiting substrate 50-800 μM, partner peptide constant
Protocol: as §1, §2

## Ac-KKLAVINHV (N-terminal acetyl) [Peptide 1]
butelase-1
  kcat/Km: 17265 ± 465 M^−1S^−1
VyPAL2
  kcat/Km: 932 ± 32 M^−1S^−1
